Source: patent publication US20110039762A1, “TARGETED ANTIMICROBIAL MOIETIES” (C3 JIAN, INC., priority 2009, published 2011)
Some results were stated once for a whole list of compounds, not compound by compound. At least one structure is not confirmed: it was looked up by name or label, or the drawing left a doubt.

Test system: S. mutans UA140 biofilms
Assay: Photodynamic antimicrobial assay against single-species biofilms
Assay type: cell-based, Streptococcus mutans
Settings: 5 or 25 μM, 5 min treatment, 5 min blue light
Method: To evaluate C16-RB against monoculture biofilms, S. mutans UA140 was grown overnight in TH prior to inoculation for biofilm formation. For biofilms, 1:5000 dilution of overnight culture was made into TH with 1% sucrose in 2 mL centrifuge tubes (200 μL volume) and grown 24 h under anaerobic conditions. After incubation, biofilms were treated for 5 min with 5 or 25 μM C16-RB or 5 μM RB in 1× PBS, or PBS alone, followed by removal of supernatant and exposure to 5 min blue light (emission 400-550 nm, power 400 mW/cm^2) from an Astralis 7 (Ivoclar Vivodent, Austria) handheld LED commonly used as a dental curing light. The light source was suspended 4 cm from the tube bottom (even with the mouth of the tube). A duplicate set of samples were left covered to serve as dark controls. After treatment, biofilms were mechanically disrupted and plated to determine cfu/mL.

## O=C1OC2(c3cc(I)c(O)c(I)c3Oc3c2cc(I)c(O)c3I)c2c(Cl)c(Cl)c(Cl)c(Cl)c21 [RB, rose bengal]
  reduction from input cfu/mL: over 3 log10
